{"source": "patent US10392390B2", "about": "“5-HT2C receptor agonists and compositions and methods of use” (Arena Pharmaceuticals, Inc., priority 2015, dated 2019)", "origin": "cited, not measured here", "details": "add on treatment, non-depressed patients with poorly controlled epilepsy; cited from earlier work", "note": "At least one structure is not confirmed: it was looked up by name or label, or the drawing left a doubt."}
{"smiles": "CN(C)CCCC1(c2ccc(F)cc2)OCc2cc(C#N)ccc21", "note": "(stereo not shown) [citalopram]", "values": [{"measurement": "drop of median seizure frequency", "result": 55.6, "unit": "%"}]}
